Test results: the supplement of paper PMC8256030
Where “and” joins values, the source holds several entries; their conditions need not be identical. Equal entries are not always repeated. Structures can show the parent of a compound that is named as a salt. Some of the results follow. Repeats in this data set agree poorly, so a single value says little.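 HEK293T cells were given each compound shortly before transfection with a reporter in which red mCherry is followed by the SARS-CoV-2 frameshift element and then GFP in the −1 frame, so GFP appears only after frameshifting.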

tested on: SARS-CoV-2 -1 PRF reporter mCherry-FSE-GFP(-1); test: percent effect, decrease of GFP/mCherry ratio (-1 PRF reporter) relative to controls; higher = stronger frameshift inhibition; details: 10 µM; 24 h; HEK293T

Row | Structure (SMILES) | percent effect
1 | O=P(O)(O)C(O)(Cc1cnc2ccccn12)P(=O)(O)O [minodronic acid] | -2.55%
2 | CN1CCN(c2c(F)cc3c(=O)c(C(=O)O)cn4c3c2OCN4C)CC1 [marbofloxacin] | -3.4%
3 | CC1(C)CCC(C)(C)c2cc(NC(=O)c3ccc(C(=O)O)cc3)ccc21 [tamibarotene] | -0.252%
4 | CC(N)C(=O)OC(C)(C)Cc1ccc(Cl)cc1 (stereo not given) [alaproclate] | 0.131%
5 | CCCC(C(=O)OCCN(CC)CC)(c1ccccc1)c1ccccc1 | -5.68%
6 | NCCCC(N)(C(=O)O)C(F)F (stereo not given) [eflornithine] | -4.34% and 0.643%
7 | CNCCCC1(c2ccccc2)SC(C)(C)c2ccccc21 (stereo not given) [talsupram] | 9.98%
8 | O=C1CN2Cc3c(ccc(Cl)c3Cl)N=C2N1 [Anagrelide] | -4.68%
9 | CCCCCOC(=O)c1ccc(N(C)C)cc1 [padimate] | -22.7%
10 | CN(c1nccc(=O)[nH]1)C1CCN(c2nc3ccccc3n2Cc2ccc(F)cc2)CC1 [mizolastine] | 1.67%
11 | O=C(Nc1cccc2c(=O)cc(-c3nnn[nH]3)oc12)c1ccc(OCCCCc2ccccc2)cc1 [Pranlukast] | -1.47% and -0.96%
12 | CS(=O)(=O)c1ccc([C@@H](O)[C@@H](CF)NC(=O)C(Cl)Cl)cc1 [florfenicol] | -1.24%
13 | CC(CCc1ccc(O)cc1)NCC(O)c1ccc(O)cc1 (stereo not given) | 2.18%
14 | CC(=O)Oc1cccc2c1C(=O)c1c(OC(C)=O)cc(C(=O)O)cc1C2=O [diacerein] | 1%
15 | Clc1cccc(C(c2ccc3[nH]cnc3c2)n2ccnc2)c1 (stereo not given) [liarozole] | -2.45%
16 | CCC(C)CCCCC(=O)NC(CCN)C(=O)NC(C(=O)NC(CCN)C(=O)NC1CCNC(=O)C(C(C)O)NC(=O)C(CCN)NC(=O)C(CCN)NC(=O)C(CC(C)C)NC(=O)C(Cc2ccccc2)NC(=O)C(CCN)NC1=O)C(C)O (stereo not given) | -1.75%
17 | O=c1[nH]c2ccccc2c(=O)n1CCCN1CCN(c2ccccc2)CC1 [pelanserin] | -1.78%
18 | O=C(O)CCCC[C@@H]1SC[C@@H]2NC(=O)N[C@@H]21 [biotin] | 1.24% and 0.129%
19 | CCOC(=O)OC(C)OC1=C(C(=O)Nc2ccccn2)N(C)S(=O)(=O)c2ccccc21 (stereo not given) [ampiroxicam] | -4.6%
20 | Cc1cc2c(s1)Nc1ccc(F)cc1N=C2N1CCN(C)CC1 [flumezapine] | 1.81%

Row | Structure (SMILES) | percent effect
21 | N[C@@H](CCC(=O)O)C(=O)O [glutamic acid] | -6.77%
22 | O=C(CCNNC(=O)c1ccncc1)NCc1ccccc1 [nialamide] | 2.05% and -0.74%
23 | NC[C@H]1O[C@H](O[C@H]2[C@H](O[C@@H]3O[C@H](CO)[C@@H](O)[C@H]3O)[C@@H](O)[C@H](N)C[C@@H]2N)[C@H](N)[C@@H](O)[C@@H]1O | -1.98%
24 | CO[C@H]1/C=C/O[C@@]2(C)Oc3c(C)c(O)c4c(O)c(c5c(nc6cc(C)ccn65)c4c3C2=O)NC(=O)/C(C)=C\C=C\[C@H](C)[C@H](O)[C@@H](C)[C@@H](O)[C@@H](C)[C@H](OC(C)=O)[C@@H]1C | -3.8%
25 | Cn1c(=O)cc(N2CCC[C@@H](N)C2)n(Cc2ccccc2C#N)c1=O [Alogliptin] | -2.58%
26 | CC1(C)S[C@@H]2[C@H](NC(=O)C3(N)CCCCC3)C(=O)N2[C@H]1C(=O)O [ciclacillin] | -3.75%
27 | CCN1CCC(=C2c3ccccc3CCc3ccccc32)C1C (stereo not given) [piroheptine] | 1.45%
28 | CN1CC(=O)N=C1N | 1.72%
29 | CC1CC(=O)NN=C1c1ccc(NN=C(C#N)C#N)cc1 (stereo not given) [simendan] | -8.08%
30 | CCC(=O)NC[C@@H]1C[C@H]1c1cccc2c1CCO2 [Tasimelteon] | -0.788%
31 | CCCC1C(=O)N2C(N(C)C)=Nc3ccc(C)cc3N2C1=O (stereo not given) [azapropazone] | -1%
32 | CC(C(O)c1ccc(O)cc1)N1CCC(Cc2ccccc2)CC1 (stereo not given) [Ifenprodil tartrate] | 2.87%
33 | CCCCCN(CCCCC)C(=O)C(CCC(=O)O)NC(=O)c1ccc(Cl)c(Cl)c1 (stereo not given) [lorglumide] | -2.76% and -1.9%
34 | CN(C)S(=O)(=O)c1ccc2c(c1)N(CCCN1CCC(CCO)CC1)c1ccccc1S2 [pipotiazine] | -0.694%
35 | O=C1NC(=O)C(C(=O)Nc2ccc(Cl)cc2)c2ccccc21 (stereo not given) [tesicam] | -6.08%
36 | O=C(O)Cc1ccc(-c2ccccc2)cc1 [felbinac] | -2.34%
37 | COC(=O)Nc1nc2cc(C(=O)c3ccc(F)cc3)ccc2[nH]1 [flubendazole] | -8.4%
38 | Cc1cc(C)c(NC(=O)CN(CC(=O)O)CC(=O)O)c(C)c1Br [mebrofenin] | 0.479%
39 | CN[C@H](CC(C)C)C(=O)N[C@H]1C(=O)N[C@@H](CC(N)=O)C(=O)N[C@H]2C(=O)N[C@H]3C(=O)N[C@H](C(=O)N[C@H](C(=O)O)c4cc(O)cc(O)c4-c4cc3ccc4O)[C@H](O)c3ccc(c(Cl)c3)Oc3cc2cc(c3O[C@@H]2O[C@H](CO)[C@@H](O)[C@H](O)[C@H]2O[C@H]2C[C@](C)(N)[C@H](O)[C@H](C)O2)Oc2ccc(cc2Cl)[C@H]1O [Vancocin] | -5.58%
40 | OCC(S)CS (stereo not given) [dimercaprol] | -3.57%

Sorted by formula weight (rising): seven of the compounds above
Row | Structure (SMILES) | percent effect
6 | NCCCC(N)(C(=O)O)C(F)F (stereo not given) [eflornithine] | -4.34% and 0.643%
18 | O=C(O)CCCC[C@@H]1SC[C@@H]2NC(=O)N[C@@H]21 [biotin] | 1.24% and 0.129%
8 | O=C1CN2Cc3c(ccc(Cl)c3Cl)N=C2N1 [Anagrelide] | -4.68%
31 | CCCC1C(=O)N2C(N(C)C)=Nc3ccc(C)cc3N2C1=O (stereo not given) [azapropazone] | -1%
37 | COC(=O)Nc1nc2cc(C(=O)c3ccc(F)cc3)ccc2[nH]1 [flubendazole] | -8.4%
35 | O=C1NC(=O)C(C(=O)Nc2ccc(Cl)cc2)c2ccccc21 (stereo not given) [tesicam] | -6.08%
19 | CCOC(=O)OC(C)OC1=C(C(=O)Nc2ccccn2)N(C)S(=O)(=O)c2ccccc21 (stereo not given) [ampiroxicam] | -4.6%
